The results in this text go back to article PMC5466602.

Sequences of proteins named here, by UniProt entry; tags and fusion partners are left off. A change or cut given only in a name is not applied to a line headed by its entry.
UniProt P25635: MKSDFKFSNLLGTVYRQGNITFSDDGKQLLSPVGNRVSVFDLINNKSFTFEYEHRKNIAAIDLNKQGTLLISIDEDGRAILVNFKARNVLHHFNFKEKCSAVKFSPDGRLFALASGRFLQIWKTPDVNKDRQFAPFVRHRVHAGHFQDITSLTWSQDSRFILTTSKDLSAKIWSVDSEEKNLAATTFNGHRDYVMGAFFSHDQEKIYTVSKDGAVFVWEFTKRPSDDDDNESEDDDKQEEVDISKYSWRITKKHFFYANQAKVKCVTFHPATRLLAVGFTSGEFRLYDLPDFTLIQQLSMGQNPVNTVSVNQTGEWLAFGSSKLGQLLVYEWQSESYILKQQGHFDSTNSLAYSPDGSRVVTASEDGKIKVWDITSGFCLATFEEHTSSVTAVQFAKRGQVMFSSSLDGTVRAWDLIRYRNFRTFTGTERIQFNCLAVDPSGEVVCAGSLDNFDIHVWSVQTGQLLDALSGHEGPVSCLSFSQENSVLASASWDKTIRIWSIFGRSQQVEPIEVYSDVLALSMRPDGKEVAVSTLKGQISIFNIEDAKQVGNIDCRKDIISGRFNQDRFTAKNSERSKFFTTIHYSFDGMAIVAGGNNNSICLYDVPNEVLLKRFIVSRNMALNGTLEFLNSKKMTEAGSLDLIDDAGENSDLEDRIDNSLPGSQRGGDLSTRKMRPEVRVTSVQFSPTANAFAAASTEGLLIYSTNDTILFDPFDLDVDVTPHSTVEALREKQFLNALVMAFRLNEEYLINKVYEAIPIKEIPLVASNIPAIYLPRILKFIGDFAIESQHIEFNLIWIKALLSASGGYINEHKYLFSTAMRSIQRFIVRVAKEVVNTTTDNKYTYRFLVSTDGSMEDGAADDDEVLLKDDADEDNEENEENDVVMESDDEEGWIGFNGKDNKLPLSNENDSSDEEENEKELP
UniProt Q06078: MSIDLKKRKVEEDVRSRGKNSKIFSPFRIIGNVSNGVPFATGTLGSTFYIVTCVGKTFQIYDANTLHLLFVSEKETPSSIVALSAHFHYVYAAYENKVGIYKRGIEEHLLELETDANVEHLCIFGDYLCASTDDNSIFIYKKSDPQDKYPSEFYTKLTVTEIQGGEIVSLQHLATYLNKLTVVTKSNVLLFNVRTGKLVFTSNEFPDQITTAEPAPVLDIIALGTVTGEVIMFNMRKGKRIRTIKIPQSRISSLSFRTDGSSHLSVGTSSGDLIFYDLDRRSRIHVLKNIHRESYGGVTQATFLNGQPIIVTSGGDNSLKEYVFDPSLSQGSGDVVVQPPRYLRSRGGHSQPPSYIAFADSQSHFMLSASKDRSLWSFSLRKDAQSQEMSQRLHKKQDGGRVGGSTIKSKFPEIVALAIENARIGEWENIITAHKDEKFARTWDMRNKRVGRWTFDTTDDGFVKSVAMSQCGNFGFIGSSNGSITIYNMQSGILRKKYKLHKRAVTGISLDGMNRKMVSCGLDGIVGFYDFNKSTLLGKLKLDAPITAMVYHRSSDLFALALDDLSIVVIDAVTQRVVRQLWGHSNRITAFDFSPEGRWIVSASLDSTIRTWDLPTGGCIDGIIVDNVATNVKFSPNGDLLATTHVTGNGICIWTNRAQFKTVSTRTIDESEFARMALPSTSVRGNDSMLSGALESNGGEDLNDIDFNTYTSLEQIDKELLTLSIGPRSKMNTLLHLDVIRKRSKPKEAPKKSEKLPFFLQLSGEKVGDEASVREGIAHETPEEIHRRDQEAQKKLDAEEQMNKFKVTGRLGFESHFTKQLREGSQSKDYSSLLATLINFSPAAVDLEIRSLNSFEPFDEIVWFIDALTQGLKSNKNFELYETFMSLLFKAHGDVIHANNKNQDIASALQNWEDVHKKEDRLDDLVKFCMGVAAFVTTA

No constants are given. Whether binding was seen depends on the method and setting. In cells and extracts the contact can be indirect. A result given as binding can be weak or reduced; the word gives no strength.

What all share (test): pull-down; co-expression of four proteins in E. coli from three plasmids (bi-cistronic UTP12-UTP13 in modified pET-28b, PWP2 and UTP21 constructs in modified pET-15b and pCDF); cobalt-affinity pull-down, SDS-PAGE, Coomassie; bands confirmed by mass spectrometry
Experiment [1] has as its target T1, Utp12p, full-length (co-expressed in E. coli) (S. cerevisiae) (UniProt Q12220).
T1 sequence: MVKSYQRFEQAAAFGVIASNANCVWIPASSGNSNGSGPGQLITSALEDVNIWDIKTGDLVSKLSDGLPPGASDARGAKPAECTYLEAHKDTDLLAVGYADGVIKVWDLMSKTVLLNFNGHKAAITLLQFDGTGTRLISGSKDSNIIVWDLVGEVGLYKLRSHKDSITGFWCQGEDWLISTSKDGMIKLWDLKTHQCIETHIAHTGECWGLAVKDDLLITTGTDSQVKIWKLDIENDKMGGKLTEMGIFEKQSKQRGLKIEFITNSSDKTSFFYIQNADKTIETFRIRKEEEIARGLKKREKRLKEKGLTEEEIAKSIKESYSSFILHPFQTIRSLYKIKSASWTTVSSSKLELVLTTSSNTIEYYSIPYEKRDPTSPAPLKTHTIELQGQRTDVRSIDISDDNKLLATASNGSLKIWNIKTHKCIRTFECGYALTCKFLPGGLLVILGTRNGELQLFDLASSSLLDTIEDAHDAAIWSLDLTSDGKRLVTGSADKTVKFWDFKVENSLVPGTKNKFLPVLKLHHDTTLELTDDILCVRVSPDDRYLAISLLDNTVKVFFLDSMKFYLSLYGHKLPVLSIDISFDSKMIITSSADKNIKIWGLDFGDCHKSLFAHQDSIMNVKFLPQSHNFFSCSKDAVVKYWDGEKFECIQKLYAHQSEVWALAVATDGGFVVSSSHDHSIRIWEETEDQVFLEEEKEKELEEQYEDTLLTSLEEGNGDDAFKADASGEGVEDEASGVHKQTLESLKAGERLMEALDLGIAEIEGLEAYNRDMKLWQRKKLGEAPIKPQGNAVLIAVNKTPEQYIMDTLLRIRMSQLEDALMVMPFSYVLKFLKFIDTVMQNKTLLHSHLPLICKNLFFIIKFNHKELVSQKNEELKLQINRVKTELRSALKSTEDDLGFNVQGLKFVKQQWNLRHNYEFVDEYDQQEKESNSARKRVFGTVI

Experiment [2] deals with T2, Utp13p, full-length (co-expressed in E. coli) (S. cerevisiae) (UniProt Q05946).
T2 sequence: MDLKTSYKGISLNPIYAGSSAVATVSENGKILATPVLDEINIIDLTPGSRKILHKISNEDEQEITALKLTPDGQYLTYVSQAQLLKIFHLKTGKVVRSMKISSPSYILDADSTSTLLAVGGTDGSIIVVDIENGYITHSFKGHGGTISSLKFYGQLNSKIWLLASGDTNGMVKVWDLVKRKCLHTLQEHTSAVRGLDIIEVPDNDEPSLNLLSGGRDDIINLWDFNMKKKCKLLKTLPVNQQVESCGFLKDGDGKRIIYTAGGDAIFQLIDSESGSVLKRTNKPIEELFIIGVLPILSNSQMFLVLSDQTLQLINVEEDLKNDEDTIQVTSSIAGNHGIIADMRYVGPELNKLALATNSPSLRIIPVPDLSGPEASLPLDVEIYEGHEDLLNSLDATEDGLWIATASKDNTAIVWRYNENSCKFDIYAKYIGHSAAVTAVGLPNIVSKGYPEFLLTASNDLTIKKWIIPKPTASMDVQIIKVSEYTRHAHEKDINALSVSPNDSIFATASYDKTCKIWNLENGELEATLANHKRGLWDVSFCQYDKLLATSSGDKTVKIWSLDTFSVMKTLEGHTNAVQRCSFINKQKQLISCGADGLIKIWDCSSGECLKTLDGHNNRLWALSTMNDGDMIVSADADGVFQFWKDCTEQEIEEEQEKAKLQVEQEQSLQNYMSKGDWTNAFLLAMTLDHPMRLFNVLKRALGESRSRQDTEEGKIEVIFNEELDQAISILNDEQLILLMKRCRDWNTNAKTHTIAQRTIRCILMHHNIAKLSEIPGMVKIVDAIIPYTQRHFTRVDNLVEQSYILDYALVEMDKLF

For experiment [3], the target named is Pwp2p C-terminal domain (CTD), E. coli (S. cerevisiae) (UniProt P25635).

“Pwp2p C-terminal domain (CTD), E. coli (from UniProt P25635) (domain or fragment)”: the binding result in experiment [1] and in experiment [2] was “binds” in each case.

On to “Utp21p C-terminal domain (CTD), E. coli (from UniProt Q06078) (domain or fragment)”, for which the binding result in experiment [1], in experiment [2] and in experiment [3] was “binds” each time.
